{"source": "patent US8241863B2", "about": "“Identification of an evolutionarily conserved pathway mediating transrepression of inflammatory response genes by nuclear receptors” (The Regents of the University of California, priority 2005, dated 2012)", "key": {"[1]": {"test_system": "iNOS gene", "test": "iNOS mRNA in LPS-stimulated primary macrophages (Northern blot / semi-quantitative RT-PCR), PPARγ ligands", "assay_type": "cell-based, mouse"}, "[2]": {"test_system": "iNOS promoter", "test": "iNOS-luciferase reporter transrepression in RAW264.7 cells transfected with PPARγ", "assay_type": "cell-based, mouse", "settings": "Ro 1 h, LPS 6 h (FIG. 9A)"}, "[3]": {"test_system": "Ccl3, Ccl7, Cxcl10 and Tgtp promoters", "test": "ChIP for NCoR and PPARγ on further LPS-inducible promoters in primary macrophages", "assay_type": "cell-based, mouse"}, "[4]": {"test_system": "PPARγ/PIAS1 interaction", "assay_type": "cell-based", "settings": "transfected RAW264.7 cells (FIG. 5c)"}, "[5]": {"test_system": "VP16-PPARγ / NCoR ΔIDC interaction", "test": "Mammalian two-hybrid assay VP16-PPARγ with GalDBD-NCoR ΔIDC", "assay_type": "cell-based", "settings": "1 mM Ro, 0.01 μM TSA, 16 hours after Ro; control or PIAS1 siRNA"}}, "note": "At least one structure is not confirmed: it was looked up by name or label, or the drawing left a doubt.", "data": [{"smiles": "CN(CCOc1ccc(CC2SC(=O)NC2=O)cc1)c1ccccn1", "note": "(stereo not shown) [rosiglitazone]", "values": [{"measurement": "inhibition of iNOS induction when ligand is added after LPS", "setting": "[1]; Ro 1 h following LPS, RNA 6 h after LPS (FIG. 2b)", "result": "unable to inhibit the induction of iNOS expression"}, {"measurement": "effect of NCoR-specific siRNA on iNOS transrepression by ligand", "setting": "[1]; primary macrophages, 1 μM ligand, LPS 6 h, Northern blot (FIG. 1a)", "result": "complete reversal"}, {"measurement": "transcriptional activation of the iNOS promoter with control or Ubc9 siRNA", "setting": "[2]", "result": "Repression of iNOS activation in the presence of control siRNA and reversal of this repression by the Ubc9 siRNA"}, {"measurement": "PPARγ binding to promoters", "setting": "[3]; ligand prior to LPS stimulation (FIG. 2f)", "result": "enhanced"}, {"measurement": "signal-dependent dismissal of NCoR from promoters", "setting": "[3]; pretreatment with ligand before LPS (FIG. 2f)", "result": "inhibited"}, {"measurement": "interactions of PPARγK77R and PPARγK365R with PIAS1", "setting": "[4]", "result": "stimulated"}, {"measurement": "luciferase activity in GalDBD-NCoR ΔIDC-transfected cells", "setting": "[5]", "result": "induce luciferase activity in a PIAS1-dependent manner"}]}]}
